The source of these data is paper PMC11749472.

The chains behind the UniProt entries cited, without tags or fusion partners. Residues count along the entry.
UniProt Q9BXM7, residues 78-581: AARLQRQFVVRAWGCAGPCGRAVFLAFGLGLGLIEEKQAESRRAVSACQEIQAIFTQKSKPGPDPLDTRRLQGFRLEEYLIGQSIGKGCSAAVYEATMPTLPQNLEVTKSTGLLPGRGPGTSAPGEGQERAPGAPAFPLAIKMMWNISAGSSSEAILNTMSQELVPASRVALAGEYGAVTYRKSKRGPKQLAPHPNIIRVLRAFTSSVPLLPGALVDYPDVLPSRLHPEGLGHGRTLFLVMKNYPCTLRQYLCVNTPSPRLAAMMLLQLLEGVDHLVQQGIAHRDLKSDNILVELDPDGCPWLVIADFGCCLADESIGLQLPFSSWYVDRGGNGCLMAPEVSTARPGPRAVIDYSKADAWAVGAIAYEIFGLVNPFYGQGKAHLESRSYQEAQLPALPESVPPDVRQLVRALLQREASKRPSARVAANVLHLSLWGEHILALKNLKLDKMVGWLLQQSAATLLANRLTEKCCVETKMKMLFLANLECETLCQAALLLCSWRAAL
UniProt Q9UKV5: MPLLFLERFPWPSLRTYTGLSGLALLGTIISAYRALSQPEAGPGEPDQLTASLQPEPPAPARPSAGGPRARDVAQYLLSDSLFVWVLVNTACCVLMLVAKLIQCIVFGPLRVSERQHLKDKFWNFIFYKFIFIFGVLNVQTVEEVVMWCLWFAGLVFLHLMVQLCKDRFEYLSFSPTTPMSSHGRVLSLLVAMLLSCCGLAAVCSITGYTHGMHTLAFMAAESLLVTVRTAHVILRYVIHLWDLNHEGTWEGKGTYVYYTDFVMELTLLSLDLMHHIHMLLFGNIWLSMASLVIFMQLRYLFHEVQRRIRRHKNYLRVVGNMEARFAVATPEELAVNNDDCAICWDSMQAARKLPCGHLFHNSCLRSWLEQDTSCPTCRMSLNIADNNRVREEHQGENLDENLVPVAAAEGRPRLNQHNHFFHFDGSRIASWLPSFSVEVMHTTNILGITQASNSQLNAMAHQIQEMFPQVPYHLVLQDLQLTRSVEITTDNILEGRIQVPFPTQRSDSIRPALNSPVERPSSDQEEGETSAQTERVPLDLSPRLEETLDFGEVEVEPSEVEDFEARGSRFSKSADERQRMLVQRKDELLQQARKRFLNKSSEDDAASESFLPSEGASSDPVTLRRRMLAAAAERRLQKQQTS
UniProt O43765: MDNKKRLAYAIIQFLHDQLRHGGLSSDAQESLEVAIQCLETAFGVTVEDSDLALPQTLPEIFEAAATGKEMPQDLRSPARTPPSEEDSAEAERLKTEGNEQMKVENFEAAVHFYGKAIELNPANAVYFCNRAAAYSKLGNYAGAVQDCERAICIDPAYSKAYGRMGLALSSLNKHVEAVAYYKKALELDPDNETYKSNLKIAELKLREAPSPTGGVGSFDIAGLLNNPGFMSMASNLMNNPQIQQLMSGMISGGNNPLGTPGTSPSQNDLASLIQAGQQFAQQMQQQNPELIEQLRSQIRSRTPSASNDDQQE

Test [1] concerns the target T1, SARM1-V5-APEX2 (full-length sterile alpha and Toll/interleukin 1 receptor motif-containing protein 1 fused to V5-APEX2) (human) (UniProt Q6SZW1).
T1 sequence: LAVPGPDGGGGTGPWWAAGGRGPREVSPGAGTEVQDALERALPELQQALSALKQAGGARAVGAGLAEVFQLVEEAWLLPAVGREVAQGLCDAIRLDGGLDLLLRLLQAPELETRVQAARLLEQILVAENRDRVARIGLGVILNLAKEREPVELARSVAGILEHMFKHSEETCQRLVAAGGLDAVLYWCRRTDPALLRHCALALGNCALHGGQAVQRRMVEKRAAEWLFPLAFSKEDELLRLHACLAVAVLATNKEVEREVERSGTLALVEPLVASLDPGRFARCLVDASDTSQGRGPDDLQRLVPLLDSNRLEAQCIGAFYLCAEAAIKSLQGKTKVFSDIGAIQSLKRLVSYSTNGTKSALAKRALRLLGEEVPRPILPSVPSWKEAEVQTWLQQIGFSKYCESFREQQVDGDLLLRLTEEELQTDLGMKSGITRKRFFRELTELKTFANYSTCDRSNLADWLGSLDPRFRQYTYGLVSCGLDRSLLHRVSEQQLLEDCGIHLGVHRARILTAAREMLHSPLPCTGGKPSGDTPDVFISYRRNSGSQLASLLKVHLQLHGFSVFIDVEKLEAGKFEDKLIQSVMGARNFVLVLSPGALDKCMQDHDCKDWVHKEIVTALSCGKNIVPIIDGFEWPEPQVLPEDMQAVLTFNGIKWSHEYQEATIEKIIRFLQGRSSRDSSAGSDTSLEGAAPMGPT
Nature of the test: proximity labelling; SARM1-V5-APEX2 in cells; biotinylation of PINK1 examined, compared with the vector or N27-V5-APEX2 control (Fig. S3).

In test [2] the target is T1, SARM1-V5-APEX2 (full-length sterile alpha and Toll/interleukin 1 receptor motif-containing protein 1 fused to V5-APEX2) (human). Nature of the test: proximity labelling; APEX2 fusions expressed in HEK293T cells; biotin-phenol 30 min, 1 mM H2O2 1 min; lysis in RIPA buffer, streptavidin magnetic beads, LC-MS/MS; normalised to N27-V5-APEX2 (fold change > 1.2, P < 0.05).
The target of test [3] is T2, SARM1-V5-APEX2 (full-length sterile alpha and Toll/interleukin 1 receptor motif-containing protein 1 fused to V5-APEX2) (human), Q6SZW1.
T2 chain: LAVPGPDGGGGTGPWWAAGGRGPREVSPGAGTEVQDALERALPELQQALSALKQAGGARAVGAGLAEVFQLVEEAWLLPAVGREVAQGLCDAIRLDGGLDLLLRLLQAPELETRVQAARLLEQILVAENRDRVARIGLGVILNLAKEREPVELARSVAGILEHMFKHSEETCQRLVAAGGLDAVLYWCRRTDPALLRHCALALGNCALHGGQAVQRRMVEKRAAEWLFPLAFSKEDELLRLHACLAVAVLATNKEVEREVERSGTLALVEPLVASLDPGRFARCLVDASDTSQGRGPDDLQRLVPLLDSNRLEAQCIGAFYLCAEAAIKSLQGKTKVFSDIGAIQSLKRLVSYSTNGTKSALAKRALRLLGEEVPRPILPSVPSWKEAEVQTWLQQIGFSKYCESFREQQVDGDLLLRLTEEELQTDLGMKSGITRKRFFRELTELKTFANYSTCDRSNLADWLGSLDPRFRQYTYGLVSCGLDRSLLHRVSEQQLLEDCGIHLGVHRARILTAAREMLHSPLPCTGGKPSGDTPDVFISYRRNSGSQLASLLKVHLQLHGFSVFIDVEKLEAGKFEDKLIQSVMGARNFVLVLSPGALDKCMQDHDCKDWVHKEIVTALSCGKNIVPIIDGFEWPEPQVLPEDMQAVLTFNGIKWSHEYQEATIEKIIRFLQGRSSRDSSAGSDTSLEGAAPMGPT
The description is as above. To be noted: remark: other sources report otherwise.

For test [4], the target named is ARM-V5-APEX2 (N-terminal armadillo repeat motif domain of SARM1 fused to V5-APEX2) (human). The description is as above.

Results are given in words; binding and its absence hold for the method and conditions named. In cells and extracts the contact can be indirect. These calls come from enrichment with a bait or labelling near it, and not all partners need be listed. For part of these data: A no says only that the protein was not detected with the bait. For part of these data: Sequences can lack the tags named with a protein.

Turning to PINK1 (from UniProt Q9BXM7 78-581), the binding entry in test [1] is “binds”.
As for “glycoprotein 78 (GP78), endogenous in HEK293T (from UniProt Q9UKV5 1-643) (enzyme)”, the binding result in test [2] is reported as “binds”.
Same read-out and setting: then “small glutamine-rich tetratricopeptide repeat-containing protein alpha (SGTA), endogenous in HEK293T (from UniProt O43765 1-313)”, with “no binding”.
For “valosin-containing protein (VCP), endogenous in HEK293T (from UniProt P55072 1-806)”, the binding entry in test [2] was “no binding”.

B1: ubiquitin-specific peptidase 13 (USP13), endogenous in HEK293T, Q92995 1-863 (enzyme)
chain: MQRRGALFGMPGGSGGRKMAAGDIGELLVPHMPTIRVPRSGDRVYKNECAFSYDSPNSEGGLYVCMNTFLAFGREHVERHFRKTGQSVYMHLKRHVREKVRGASGGALPKRRNSKIFLDLDTDDDLNSDDYEYEDEAKLVIFPDHYEIALPNIEELPALVTIACDAVLSSKSPYRKQDPDTWENELPVSKYANNLTQLDNGVRIPPSGWKCARCDLRENLWLNLTDGSVLCGKWFFDSSGGNGHALEHYRDMGYPLAVKLGTITPDGADVYSFQEEEPVLDPHLAKHLAHFGIDMLHMHGTENGLQDNDIKLRVSEWEVIQESGTKLKPMYGPGYTGLKNLGNSCYLSSVMQAIFSIPEFQRAYVGNLPRIFDYSPLDPTQDFNTQMTKLGHGLLSGQYSKPPVKSELIEQVMKEEHKPQQNGISPRMFKAFVSKSHPEFSSNRQQDAQEFFLHLVNLVERNRIGSENPSDVFRFLVEERIQCCQTRKVRYTERVDYLMQLPVAMEAATNKDELIAYELTRREAEANRRPLPELVRAKIPFSACLQAFSEPENVDDFWSSALQAKSAGVKTSRFASFPEYLVVQIKKFTFGLDWVPKKFDVSIDMPDLLDINHLRARGLQPGEEELPDISPPIVIPDDSKDRLMNQLIDPSDIDESSVMQLAEMGFPLEACRKAVYFTGNMGAEVAFNWIIVHMEEPDFAEPLTMPGYGGAASAGASVFGASGLDNQPPEEIVAIITSMGFQRNQAIQALRATNNNLERALDWIFSHPEFEEDSDFVIEMENNANANIISEAKPEGPRVKDGSGTYELFAFISHMGTSTMSGHYICHIKKEGRWVIYNDHKVCASERPPKDLGYMYFYRRIPS
As for B1, the binding entry in test [3] was “binds”.

B2: ubiquitin-specific peptidase 13 (USP13), endogenous in HEK293T (enzyme, UniProt Q92995 1-863)
chain: MQRRGALFGMPGGSGGRKMAAGDIGELLVPHMPTIRVPRSGDRVYKNECAFSYDSPNSEGGLYVCMNTFLAFGREHVERHFRKTGQSVYMHLKRHVREKVRGASGGALPKRRNSKIFLDLDTDDDLNSDDYEYEDEAKLVIFPDHYEIALPNIEELPALVTIACDAVLSSKSPYRKQDPDTWENELPVSKYANNLTQLDNGVRIPPSGWKCARCDLRENLWLNLTDGSVLCGKWFFDSSGGNGHALEHYRDMGYPLAVKLGTITPDGADVYSFQEEEPVLDPHLAKHLAHFGIDMLHMHGTENGLQDNDIKLRVSEWEVIQESGTKLKPMYGPGYTGLKNLGNSCYLSSVMQAIFSIPEFQRAYVGNLPRIFDYSPLDPTQDFNTQMTKLGHGLLSGQYSKPPVKSELIEQVMKEEHKPQQNGISPRMFKAFVSKSHPEFSSNRQQDAQEFFLHLVNLVERNRIGSENPSDVFRFLVEERIQCCQTRKVRYTERVDYLMQLPVAMEAATNKDELIAYELTRREAEANRRPLPELVRAKIPFSACLQAFSEPENVDDFWSSALQAKSAGVKTSRFASFPEYLVVQIKKFTFGLDWVPKKFDVSIDMPDLLDINHLRARGLQPGEEELPDISPPIVIPDDSKDRLMNQLIDPSDIDESSVMQLAEMGFPLEACRKAVYFTGNMGAEVAFNWIIVHMEEPDFAEPLTMPGYGGAASAGASVFGASGLDNQPPEEIVAIITSMGFQRNQAIQALRATNNNLERALDWIFSHPEFEEDSDFVIEMENNANANIISEAKPEGPRVKDGSGTYELFAFISHMGTSTMSGHYICHIKKEGRWVIYNDHKVCASERPPKDLGYMYFYRRIPS
As to B2, the binding result in test [4] was “binds”.
